One compound from patent publication US20250257069A1, “JAK INHIBITOR ANALOGS, FORMULATIONS, AND USES THEREOF” (THE REGENTS OF THE UNIVERSITY OF MICHIGAN, priority 2022, published 2025) can be followed below.

For one experiment, the system named is HEL 92.1.7 cells. Briefly: Anti-proliferative assay in HEL cells (CellTiter 96 Aqueous). Format: cell-based. The note with it: Homo sapiens, 72 h, 3 days. The protocol: (§1) Cell Culture and anti-proliferative assay. Human cell lines HEL 92.1.7 and SET-2 were obtained from American Type Culture Collection (ATCC) and Leibniz Institute DSMZ-German Collection of Microorganisms and Cell Cultures GmbH, respectively. HEL and SET-2 cells were cultured in RMPI 1640 medium (Life Technologies Corporation, New York, USA) supplemented with 10% or 20% fetal bovine serum (FBS, Life Technologies Corporation, New York, USA), respectively. Cells were incubated at 37° C. in a humidified atmosphere of 5% CO2. Cells were seeded into 96-well culture plates at the density of approximately 8000 cells per well and treated with various concentrations of compounds for 3 days in final volumes of 200 μL. Upon end point, cells were treated using CellTiter 96 Aqueous Assay Reagents (Promega Corporation, Madison, USA) according to the provider's instruction. Briefly, MITS and PMS solution were thawed and mixed (20:1, v/v) before use and pipet appropriate amount of the mixed solution into each well of the 96 well assay plates. The plates were incubated for 1-4 hours at 37° C. in a humidified atmosphere of 5% CO2. The absorbance at 490 nm was recorded using CYTATION 5 imaging reader (BioTek, VT, USA). IC50 values were calculated using percentage of growth versus untreated control.

Another experiment concerns SET-2 cells. In words: Anti-proliferative assay in SET-2 cells (CellTiter 96 Aqueous). The format is cell-based. The note with it: Homo sapiens, 72 h, 3 days. The protocol:
as §1

Turning to `CCS(=O)(=O)N1CC(CC#N)(n2cc(-c3ncnc4[nH]ccc34)cn2)C1` [Baricitinib], the IC50 in the experiment with HEL 92.1.7 cells was 0.34 µM; with SET-2 cells, roughly 0.00784 µM.

A word on the IC50: it is the concentration that gives 50% inhibition. Low readings indicate greater potency, high ones weaker potency.
